Values of other authors in US12290527B2, “Compositions and methods for reducing major thrombotic events in cancer patients” (Beth Israel Deaconess Medical Center, Inc., priority 2018, dated 2025).
At least one compound was matched to its structure with a doubt left.

Tested on: soluble P-selectin
Conditions: standard anticoagulants compared in words; cited from earlier work

SMILES: [H]/N=C(/N)c1ccc(NCc2nc3cc(C(=O)N(CCC(=O)O)c4ccccn4)ccc3n2C)cc1 [dabigatran]
- lowering of soluble P-selectin levels (activity shared with isoquercetin or not): not shared
